{"source": "PubChem BioAssay AID1259308 (NCATS, 2017)", "assay": "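Genes whose loss raises luciferase production in HEK293 cells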 (primary screen)", "system": "human HEK293 embryonic kidney cells stably expressing firefly luciferase (HEK-CMV-Luc2-Hygro)", "reagent": "single siRNA against human genes, 0.8 pmol siRNA per well", "timing": "72 h", "measured": "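Luciferase light (ONE-Glo) measured on one replicate plate set and viability (CellTiter-Glo) on the other, scaled to a negative control siRNA, with robust z-scores and luciferase per cell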", "scale": "total luciferase, z-score: higher = more reporter protein produced", "call rule": "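An siRNA counts as active if its total luciferase robust z-score exceeds 3; genes with two or more such siRNAs out of three were retested with fresh siRNAs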", "calls": "active = raised luciferase; inactive = no rise", "note": "The deposit covers about 59,000 reagents; shown is an unselected part. In the full data, about 1,510 (2.6%) got an active call. 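Calls use total luciferase alone and ignore viability, so some active siRNAs may act by altering cell number.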 A number with no mark means an inactive call. Reagents against one gene are numbered here. Not all columns of the deposit are shown."}
The first 3 records, ahead of the listing:
{"gene":"CES3 (carboxylesterase 3)","reagent":1,"total luciferase, z-score":0.394}
{"gene":"CES3 (carboxylesterase 3)","reagent":2,"total luciferase, z-score":0.325}
{"gene":"CES3 (carboxylesterase 3)","reagent":3,"total luciferase, z-score":0.653}

Main list, from the start:
{"gene":"CES3 (carboxylesterase 3)","reagent":1,"total luciferase, z-score":0.394}
{"gene":"CES3 (carboxylesterase 3)","reagent":2,"total luciferase, z-score":0.325}
{"gene":"CES3 (carboxylesterase 3)","reagent":3,"total luciferase, z-score":0.653}
{"gene":"RNF43 (ring finger protein 43)","reagent":1,"total luciferase, z-score":0.808}
{"gene":"RNF43 (ring finger protein 43)","reagent":2,"total luciferase, z-score":-2.23}
{"gene":"RNF43 (ring finger protein 43)","reagent":3,"total luciferase, z-score":-0.889}
{"gene":"STOM (stomatin)","reagent":1,"total luciferase, z-score":0.318}
{"gene":"STOM (stomatin)","reagent":2,"total luciferase, z-score":-0.173}
{"gene":"STOM (stomatin)","reagent":3,"total luciferase, z-score":-0.638}
{"gene":"LINC03034 (long independently transcribed non-coding RNA 3034)","reagent":1,"total luciferase, z-score":-1.8}
{"gene":"LINC03034 (long independently transcribed non-coding RNA 3034)","reagent":2,"total luciferase, z-score":-0.733}
{"gene":"LINC03034 (long independently transcribed non-coding RNA 3034)","reagent":3,"total luciferase, z-score":0.789}
{"gene":"EEF1B2 (eukaryotic translation elongation factor 1 beta 2)","reagent":1,"total luciferase, z-score":"3.75 (active)"}
{"gene":"EEF1B2 (eukaryotic translation elongation factor 1 beta 2)","reagent":2,"total luciferase, z-score":"3.48 (active)"}
{"gene":"EEF1B2 (eukaryotic translation elongation factor 1 beta 2)","reagent":3,"total luciferase, z-score":1.08}
{"gene":"JOSD2 (Josephin domain containing 2)","reagent":1,"total luciferase, z-score":0.396}
{"gene":"JOSD2 (Josephin domain containing 2)","reagent":2,"total luciferase, z-score":-0.0467}
{"gene":"JOSD2 (Josephin domain containing 2)","reagent":3,"total luciferase, z-score":-0.161}
{"gene":"GPR68 (G protein-coupled receptor 68)","reagent":1,"total luciferase, z-score":0.504}
{"gene":"GPR68 (G protein-coupled receptor 68)","reagent":2,"total luciferase, z-score":-0.245}
{"gene":"GPR68 (G protein-coupled receptor 68)","reagent":3,"total luciferase, z-score":2.11}
{"gene":"TERB1 (telomere repeat binding bouquet formation protein 1)","reagent":1,"total luciferase, z-score":2.36}
{"gene":"TERB1 (telomere repeat binding bouquet formation protein 1)","reagent":2,"total luciferase, z-score":-0.0768}
{"gene":"TERB1 (telomere repeat binding bouquet formation protein 1)","reagent":3,"total luciferase, z-score":0.64}
{"gene":"LTB (lymphotoxin beta)","reagent":1,"total luciferase, z-score":2.01}
{"gene":"LTB (lymphotoxin beta)","reagent":2,"total luciferase, z-score":0.791}
{"gene":"LTB (lymphotoxin beta)","reagent":3,"total luciferase, z-score":-0.432}
{"gene":"RHNO1 (RAD9-HUS1-RAD1 interacting nuclear orphan 1)","reagent":1,"total luciferase, z-score":-0.799}
{"gene":"RHNO1 (RAD9-HUS1-RAD1 interacting nuclear orphan 1)","reagent":2,"total luciferase, z-score":0.822}
{"gene":"RHNO1 (RAD9-HUS1-RAD1 interacting nuclear orphan 1)","reagent":3,"total luciferase, z-score":-1.18}
{"gene":"TMED7 (transmembrane p24 trafficking protein 7)","reagent":1,"total luciferase, z-score":0.047}
{"gene":"TMED7 (transmembrane p24 trafficking protein 7)","reagent":2,"total luciferase, z-score":-0.114}
{"gene":"TMED7 (transmembrane p24 trafficking protein 7)","reagent":3,"total luciferase, z-score":-0.627}
